Where no end group is shown, it is not given here. [ ]: non-standard residue; d: D form. The star is where a group is joined. DOTA = O=C(O)CN1CCN(CC(=O)O)CCN(CC(=O)*)CCN(CC(=O)O)CC1
Assays:
[1] = peptide made by a vendor (peptide synthesis; preloaded Fmoc-Arg(Pbf)-Wang resin; DIC/HOBt; active ester method for DOTA-tris(tBu)-NHS); details: whole synthesis, trifluoroacetate salt
[2] = general procedure: Fmoc solid-phase peptide synthesis; preloaded Fmoc-Arg(Pbf)-Wang resin; DIC/HOBt; active ester method for DOTA-tris(tBu)-NHS; details: whole synthesis, trifluoroacetate salt (vendor conjugates)

Substance	final purity (method not given) [1] [%]	final purity (method not given) [2] [%]	isolated yield [2] [%]
K(DOTA)ATWLPPR	> 99	–	–
[dR][dP][dP][dL][dW][dT][dA][dK](DOTA)	> 99	–	–
DOTA-Ahx-A7R	–	>98	37
Lys(hArg)-Dab(Ahx-DOTA)-Pro-Arg	–	> 95	27
